Experimental data taken from the supplement of paper PMC12889115.
The other results are listed elsewhere or left out. Values are raw readings; no control value is given beside them.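 Primary screen: polymyxin B was added at a level permeabilizing Salmonella outer membranes while sparing inner membranes. DMSO wells, both with and without polymyxin B, established maximum growth. Plate-to-plate variation meant each plate was ranked on its own, and the lowest-OD600 compounds were selected as hits.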

System: Salmonella enterica serovar Typhimurium SL1344
Experiment: bacterial growth OD600 after 18 h with compound and polymyxin B; higher = more bacterial growth (less inhibition)
Settings: 50 µM, Mueller-Hinton broth

| Compound | bacterial growth OD600 (polymyxin B 1 µg/mL) | bacterial growth OD600 (polymyxin B 0.75 µg/mL) |
| --- | --- | --- |
| O=C(Nc1ccc(Oc2cccnc2)cc1)C1CCN(Cc2ccccc2F)CC1 | 0.588 | – |
| CC1(C)CC(C(=O)NCC2Cc3cc(-c4cccc(OC(F)(F)F)c4)ccc3O2)CCO1 (stereo not drawn) | – | 0.012 |
| CC1CN(CC2CC2)Cc2cc(Cl)ccc2O1 (stereo not drawn) | – | 0.786 |
| O=C(NC1CCCC1)C1CCCN(C2CCN(Cc3ccccc3)CC2)C1 (stereo not drawn) | – | 0.82 |
| COC(=O)C1CCN(Cc2c(C(=O)N(C)CCc3ccccc3)nc3c(C)cccn23)CC1 | 1.02 | – |
| Cc1cc2nc(N3CCC(C(=O)NCCOC(C)C)CC3)nc(C)c2cc1C | – | 0.854 |
| COc1cc(CC2(CCC(=O)N(C)Cc3cc4ccccc4s3)CCC(=O)N2)ccc1F (stereo not drawn) | – | 0.755 |
| CCOC(=O)N1CCC(N2CCCC(CNC(=O)CCc3ccccc3)C2)CC1 (stereo not drawn) | – | 0.879 |

Two entries from above, in CSV form:
Compound,bacterial growth OD600 (polymyxin B 1 µg/mL),bacterial growth OD600 (polymyxin B 0.75 µg/mL)
CC1(C)CC(C(=O)NCC2Cc3cc(-c4cccc(OC(F)(F)F)c4)ccc3O2)CCO1 (stereo not drawn),–,0.012
CC1CN(CC2CC2)Cc2cc(Cl)ccc2O1 (stereo not drawn),–,0.786
